Mtb heat-shock: 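Assay on Mycobacterium tuberculosis, filed only as a heat shock assay from Cornell; the read-out is not stated. The concentration is filed as 10 mM, unlikely as a test dose, so the dose is not known. The record gives no direction; compounds that gave an IC50 in retests scored well above the rest, so higher reads as stronger inhibition. Of about 69,000 compounds tested this way, about 930 (1.4%) reached 50% or more in at least one test.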
Mtb growth Cornell: 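Whole-cell assay for inhibitors of Mycobacterium tuberculosis growth, labelled Cornell in the record; the read-out is not stated. The concentration is filed as 10 mM, unlikely as a test dose, so the dose is not known. Higher means stronger inhibition (inferred from two other growth screens of the library). Of about 53,000 compounds tested this way, about 900 (1.7%) reached 50% or more in at least one test.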
LdMetRS: 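Primary screen of methionyl-tRNA synthetase; the read-out is not stated. Target: Methionyl-tRNA synthetase (putative), Leishmania donovani (UniProt E9BF75). The test concentration is not given. Values are per cent inhibition. About 68,000 compounds were tested under these conditions; 0.035% (about 24) showed 50% or more at least once.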

Chains of the proteins cited; added tags and fusions are not shown.
UniProt E9BF75, entry or part of it: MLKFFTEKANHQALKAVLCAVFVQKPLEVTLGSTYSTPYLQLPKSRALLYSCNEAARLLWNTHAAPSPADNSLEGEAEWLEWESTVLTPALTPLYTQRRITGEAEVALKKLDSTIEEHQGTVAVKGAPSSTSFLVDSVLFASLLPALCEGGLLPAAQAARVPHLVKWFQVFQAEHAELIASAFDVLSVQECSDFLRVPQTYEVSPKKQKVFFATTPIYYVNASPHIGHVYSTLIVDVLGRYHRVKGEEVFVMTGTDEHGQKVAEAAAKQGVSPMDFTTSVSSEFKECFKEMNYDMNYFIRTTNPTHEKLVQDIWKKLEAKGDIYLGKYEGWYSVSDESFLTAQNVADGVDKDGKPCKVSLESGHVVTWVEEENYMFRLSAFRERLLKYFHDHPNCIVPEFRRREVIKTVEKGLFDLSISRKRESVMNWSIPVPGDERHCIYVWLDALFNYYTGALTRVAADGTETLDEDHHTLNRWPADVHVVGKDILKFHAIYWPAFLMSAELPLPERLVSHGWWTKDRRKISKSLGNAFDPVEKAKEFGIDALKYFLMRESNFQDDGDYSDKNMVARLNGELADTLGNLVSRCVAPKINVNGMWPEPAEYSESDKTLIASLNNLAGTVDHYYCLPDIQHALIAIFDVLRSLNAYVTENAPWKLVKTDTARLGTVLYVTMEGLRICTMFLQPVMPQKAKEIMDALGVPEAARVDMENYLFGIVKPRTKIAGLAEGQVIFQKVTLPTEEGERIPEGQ

All values are in %.
The controls that fix the scale are not given in the record; negative values are as filed.
This is an unselected part of the compounds tested.

{"structure": "O=C(Nc1cccnc1)C1=NN(c2ccccc2)C(=O)CN1", "Mtb heat-shock": -17.39, "LdMetRS": 3.662}
{"structure": "COc1cccc(CNCCc2cc(F)cc3c2OCOC3)c1OC", "Mtb heat-shock": 10.93, "Mtb growth Cornell": 39.69, "LdMetRS": 15.01}
{"structure": "COCC1CN(Cc2cc(C)on2)Cc2cn(CC3CC3)nc21", "stereo": "configuration not stated", "Mtb heat-shock": -22.31, "Mtb growth Cornell": 14.79, "LdMetRS": 9.446}
{"structure": "O=C(COc1cc(Cl)cc(Cl)c1)NCc1nncn1C1CC1", "Mtb heat-shock": -4.774, "Mtb growth Cornell": 2.424, "LdMetRS": 7.599}
{"structure": "CCc1nc(CN2CCCCC2C(N)=O)cs1", "stereo": "configuration not stated", "Mtb heat-shock": 2.628, "Mtb growth Cornell": -7.374, "LdMetRS": 13.43}
{"structure": "COc1cc(CNCC(O)c2ccccc2)cc2c1OCO2.Cl", "stereo": "configuration not stated", "Mtb heat-shock": -7.292}
{"structure": "CC1CCCN(C(=O)NCC(F)F)C1", "stereo": "configuration not stated", "Mtb heat-shock": 1.975, "Mtb growth Cornell": -0.2015, "LdMetRS": 11.39}
{"structure": "[H][C@@]12CN(C(C)=O)C[C@]1(C(=O)NC)CCC21CCN(S(C)(=O)=O)CC1", "Mtb heat-shock": -33.77}
{"structure": "CO[C@H]1CCN(Cc2c(C)noc2C)[C@@H]2CN(Cc3ccncc3)C[C@H]12", "LdMetRS": 9.29}
{"structure": "Cc1cncc(C2CCCN(Cc3cccn3C)C2)n1", "stereo": "configuration not stated", "Mtb heat-shock": -15.22, "LdMetRS": 15.73}
{"structure": "O=c1cc(CN2CCCC2)nc2n1CCCN(CC1CC1)C2", "Mtb heat-shock": 59.59, "Mtb growth Cornell": -16.69, "LdMetRS": 7.038}
{"structure": "CCn1nccc1CNc1[nH]cnc2nc(C)nc1-2", "Mtb heat-shock": -0.9699, "Mtb growth Cornell": -21.63, "LdMetRS": 4.505}
{"structure": "O=C(C1=CCCC1)N1C[C@H]2CCC[C@@]2(COCc2ccncc2)C1", "LdMetRS": 18.44}
{"structure": "Cn1c(CN2CCOCC2)cc(=O)c(O)c1CN1CCCCC1", "Mtb heat-shock": 3.236, "Mtb growth Cornell": 2.339, "LdMetRS": 14.91}
{"structure": "COCC(=O)N1CCCCC1c1ccnc(Nc2ncc(C)s2)n1", "stereo": "configuration not stated", "Mtb heat-shock": -16.88, "Mtb growth Cornell": -7.281, "LdMetRS": 16.83}
{"structure": "N#Cc1cccc(S(=O)(=O)NC(=O)CCOCC(F)(F)F)c1", "Mtb heat-shock": 27.53, "LdMetRS": 12.22}
{"structure": "[H][C@]12CC[C@]([H])(CN(C(C)=O)C1)N(S(=O)(=O)c1ccc(F)cc1Cl)C2", "Mtb heat-shock": 10.85, "Mtb growth Cornell": 23.71}
{"structure": "N#CC1COCCN1C(=O)c1ccc2[nH]ccc2c1", "stereo": "configuration not stated", "Mtb heat-shock": 10.46, "Mtb growth Cornell": 10.98, "LdMetRS": 11.43}
{"structure": "Cc1nc(CCC(N)=O)cc(C2CCCCN2S(C)(=O)=O)n1", "stereo": "configuration not stated", "Mtb heat-shock": 7.821, "Mtb growth Cornell": 34.9, "LdMetRS": 16.04}
{"structure": "COCc1noc(CN2C[C@H](C3CC3)[C@@H](N(C)C)C2)n1", "Mtb heat-shock": -16.35, "Mtb growth Cornell": 47.91, "LdMetRS": 13.19}
{"structure": "CCc1nc(C(=O)N(C)CC(=O)N(C)C)nn1-c1ccccc1Cl", "Mtb heat-shock": -16.31, "Mtb growth Cornell": -56.27, "LdMetRS": 3.133}
{"structure": "O=C(c1cnccn1)N1CCCC2(CCN(Cc3ccsc3)C2)C1", "stereo": "configuration not stated", "LdMetRS": 3.562}
{"structure": "CC(C)C1CN(S(=O)(=O)C2CC2)CCCN1Cc1ccc(F)cc1", "stereo": "configuration not stated", "Mtb heat-shock": -21.06, "Mtb growth Cornell": 17.92, "LdMetRS": 15.88}
{"structure": "c1coc(-c2nnc(CN(Cc3cccs3)CC3CCCO3)o2)c1", "stereo": "configuration not stated", "Mtb heat-shock": 21.18, "LdMetRS": 8.871}
{"structure": "COCCC(=O)NCCc1nc2cc(-c3ccc(OC)cc3)ncn2n1", "Mtb heat-shock": -11.69, "Mtb growth Cornell": 43.98, "LdMetRS": 13.95}
{"structure": "[H][C@]12COC[C@H](NS(C)(=O)=O)[C@@]1([H])CN(Cc1ccco1)C2", "Mtb heat-shock": 6.444, "Mtb growth Cornell": 4.787}

The last 3 entries again:

c1coc(-c2nnc(CN(Cc3cccs3)CC3CCCO3)o2)c1 (configuration not stated) gave Mtb heat-shock: 21.18%; LdMetRS: 8.871%.
COCCC(=O)NCCc1nc2cc(-c3ccc(OC)cc3)ncn2n1 gave Mtb heat-shock: -11.69%; Mtb growth Cornell: 43.98%; LdMetRS: 13.95%.
[H][C@]12COC[C@H](NS(C)(=O)=O)[C@@]1([H])CN(Cc1ccco1)C2 gave Mtb heat-shock: 6.444%; Mtb growth Cornell: 4.787%.

Data taken from ChEMBL document CHEMBL3988442, “University of Dundee, Small-Polar-MMV Screening Library” (2021).